What all share (test): two-hybrid; LexA-Cdc1 bait (pBTM116 or pBTM116BN) with Gal4 activation domain-Cdc27 prey (pGAD2F-Cdc27) in S. cerevisiae CTY10-5d; ONPG liquid culture beta-galactosidase assay, mean of triplicates, as percent of wild-type Cdc1
One assay concerns the target T1, Cdc1-E1 (Schizosaccharomyces pombe, UniProt P87324 1-462, Ser-GlyValProGlnSer-Asp).
T1 construct: Cdc1, S. pombe, with a pentapeptide inserted after residue 66; source: yeast two-hybrid fusion, in S. cerevisiae CTY10-5d
T1 sequence (looked up): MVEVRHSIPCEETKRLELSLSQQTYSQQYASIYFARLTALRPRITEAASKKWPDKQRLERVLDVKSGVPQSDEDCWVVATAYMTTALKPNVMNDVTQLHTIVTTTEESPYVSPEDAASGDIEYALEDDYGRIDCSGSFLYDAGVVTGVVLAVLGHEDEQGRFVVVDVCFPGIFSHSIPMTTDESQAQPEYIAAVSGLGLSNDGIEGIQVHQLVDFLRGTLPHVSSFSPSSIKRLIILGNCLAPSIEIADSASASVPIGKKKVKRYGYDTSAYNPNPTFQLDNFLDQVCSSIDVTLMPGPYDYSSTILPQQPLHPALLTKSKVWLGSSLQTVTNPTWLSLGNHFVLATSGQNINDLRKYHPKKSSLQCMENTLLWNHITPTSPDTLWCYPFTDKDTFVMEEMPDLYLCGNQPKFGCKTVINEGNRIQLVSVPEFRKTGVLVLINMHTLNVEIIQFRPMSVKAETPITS

For a further assay, the target named is T2, Cdc1-J16 (Schizosaccharomyces pombe, UniProt P87324 1-462, Val-GlyGlyThrProVal-Asp).
T2 construct: Cdc1, S. pombe, with a pentapeptide inserted after residue 160; source: yeast two-hybrid fusion, in S. cerevisiae CTY10-5d
T2 sequence (looked up): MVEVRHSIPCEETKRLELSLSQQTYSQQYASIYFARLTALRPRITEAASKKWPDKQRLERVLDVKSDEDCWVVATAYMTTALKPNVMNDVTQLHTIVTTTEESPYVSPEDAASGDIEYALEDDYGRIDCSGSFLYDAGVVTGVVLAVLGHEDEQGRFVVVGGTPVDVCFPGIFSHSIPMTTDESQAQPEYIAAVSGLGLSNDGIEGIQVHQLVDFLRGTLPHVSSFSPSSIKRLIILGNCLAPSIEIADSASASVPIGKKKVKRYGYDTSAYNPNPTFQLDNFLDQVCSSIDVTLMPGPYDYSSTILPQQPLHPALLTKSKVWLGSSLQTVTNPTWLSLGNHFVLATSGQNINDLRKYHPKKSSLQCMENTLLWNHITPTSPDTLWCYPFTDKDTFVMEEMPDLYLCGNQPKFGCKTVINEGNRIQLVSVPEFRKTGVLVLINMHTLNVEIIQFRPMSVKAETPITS

A further assay has as its target T3, Cdc1-J4 (Schizosaccharomyces pombe, UniProt P87324 1-462, Ile-GlyValProArgIle-Asp).
T3 construct: Cdc1, S. pombe, with a pentapeptide inserted after residue 127; also called J5; J13; source: yeast two-hybrid fusion, in S. cerevisiae CTY10-5d
T3 sequence (looked up): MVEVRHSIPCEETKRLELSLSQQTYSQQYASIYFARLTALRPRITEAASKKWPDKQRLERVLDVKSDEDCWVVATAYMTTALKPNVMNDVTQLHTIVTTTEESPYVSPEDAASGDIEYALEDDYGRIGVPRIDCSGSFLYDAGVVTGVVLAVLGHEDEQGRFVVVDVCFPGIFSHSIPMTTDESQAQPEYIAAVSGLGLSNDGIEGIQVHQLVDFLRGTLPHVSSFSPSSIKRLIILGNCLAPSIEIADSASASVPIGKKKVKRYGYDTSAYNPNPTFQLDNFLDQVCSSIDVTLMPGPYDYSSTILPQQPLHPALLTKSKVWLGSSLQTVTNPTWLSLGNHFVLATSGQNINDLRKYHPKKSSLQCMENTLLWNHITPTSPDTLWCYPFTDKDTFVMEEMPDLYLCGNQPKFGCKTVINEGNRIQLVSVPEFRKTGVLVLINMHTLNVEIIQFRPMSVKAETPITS

The next assay has as its target T4, Cdc1-A7 (Schizosaccharomyces pombe, UniProt P87324 1-462, Gly344Ala).
T4 construct: Cdc1, S. pombe, point mutant; source: yeast two-hybrid fusion, in S. cerevisiae CTY10-5d
T4 sequence (looked up): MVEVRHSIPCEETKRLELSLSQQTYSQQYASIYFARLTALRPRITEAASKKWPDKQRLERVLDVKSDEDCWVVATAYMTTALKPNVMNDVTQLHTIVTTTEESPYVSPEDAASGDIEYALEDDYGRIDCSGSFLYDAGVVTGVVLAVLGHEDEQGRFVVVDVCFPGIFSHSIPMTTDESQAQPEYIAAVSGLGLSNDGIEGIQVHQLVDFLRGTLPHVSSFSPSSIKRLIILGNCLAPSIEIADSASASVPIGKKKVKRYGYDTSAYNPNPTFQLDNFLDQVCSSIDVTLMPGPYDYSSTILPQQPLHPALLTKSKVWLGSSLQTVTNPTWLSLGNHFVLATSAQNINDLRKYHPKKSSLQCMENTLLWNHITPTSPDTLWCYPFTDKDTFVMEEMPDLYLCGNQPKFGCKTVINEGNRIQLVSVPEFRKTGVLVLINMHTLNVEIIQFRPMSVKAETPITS

These are yes or no findings as the source states them, for the method shown. Where a sequence is shown, tags or fusion partners need not be part of it.

B1: Cdc27 (fission yeast DNA polymerase delta C-subunit) (natural protein, Schizosaccharomyces pombe, UniProt P30261 1-372, looked up)
chain: MEEWRNFLDIKVINESSLVTVDNLSLQLDISSEKAQEYLNMFYQGNDFLYPIYLIHGQPIDDEINLEIDEESQPISNFPVLQYILCDKSSLQEKQSRLKSGYKTVIFALSSAPLSDFDELLPAVYEIREKDVLYKKEDADKYGFIFNENSVPRVLKKAPSTHSPQLSVPSKTSTIDKTDTRSTEKTKGKDIFSNARNQKGNSSRKNKKAPLENHKEKEPLLPKEEKLSEQAKRERDDLKNIMQLEDESVSTTSVHDSEDDNLDSNNFQLEIGTEAKSAAPDEPQEIIKSVSGGKRRGKRKVKKYATTKDEEGFLVTKEEEVWESFSEDENISTGTSNVVRNKPTTVNIATKKKNTAQSKPQQKSIMSFFGKK
notes: DNA polymerase delta C-subunit Cdc27, S. pombe; prey plasmid pGAD2F-Cdc27; also called pGAD2F-Cdc27; source: yeast two-hybrid fusion, in S. cerevisiae CTY10-5d
Take B1: the binding entry with Cdc1-E1 is “no binding (tested: 1% of wild type (Table 1))”; with Cdc1-J16 it was “no binding (tested: <1% of wild type (Table 1))”; in the assay with Cdc1-J4, “no binding (tested: <1% of wild type (Table 1))”; with Cdc1-A7, “no binding (tested: <1% of wild type)”.

The record behind these values is publication PMC2734569, “Functional mapping of the fission yeast DNA polymerase δ B-subunit Cdc1 by site-directed and random pentapeptide insertion mutagenesis” (BMC Molecular Biology, 2009).
